Test [1] has as its target T1, endogenous TRPP2 of mouse vascular smooth muscle cells (mouse (endogenous in aortic VSMCs)) (UniProt O35245).
T1 sequence: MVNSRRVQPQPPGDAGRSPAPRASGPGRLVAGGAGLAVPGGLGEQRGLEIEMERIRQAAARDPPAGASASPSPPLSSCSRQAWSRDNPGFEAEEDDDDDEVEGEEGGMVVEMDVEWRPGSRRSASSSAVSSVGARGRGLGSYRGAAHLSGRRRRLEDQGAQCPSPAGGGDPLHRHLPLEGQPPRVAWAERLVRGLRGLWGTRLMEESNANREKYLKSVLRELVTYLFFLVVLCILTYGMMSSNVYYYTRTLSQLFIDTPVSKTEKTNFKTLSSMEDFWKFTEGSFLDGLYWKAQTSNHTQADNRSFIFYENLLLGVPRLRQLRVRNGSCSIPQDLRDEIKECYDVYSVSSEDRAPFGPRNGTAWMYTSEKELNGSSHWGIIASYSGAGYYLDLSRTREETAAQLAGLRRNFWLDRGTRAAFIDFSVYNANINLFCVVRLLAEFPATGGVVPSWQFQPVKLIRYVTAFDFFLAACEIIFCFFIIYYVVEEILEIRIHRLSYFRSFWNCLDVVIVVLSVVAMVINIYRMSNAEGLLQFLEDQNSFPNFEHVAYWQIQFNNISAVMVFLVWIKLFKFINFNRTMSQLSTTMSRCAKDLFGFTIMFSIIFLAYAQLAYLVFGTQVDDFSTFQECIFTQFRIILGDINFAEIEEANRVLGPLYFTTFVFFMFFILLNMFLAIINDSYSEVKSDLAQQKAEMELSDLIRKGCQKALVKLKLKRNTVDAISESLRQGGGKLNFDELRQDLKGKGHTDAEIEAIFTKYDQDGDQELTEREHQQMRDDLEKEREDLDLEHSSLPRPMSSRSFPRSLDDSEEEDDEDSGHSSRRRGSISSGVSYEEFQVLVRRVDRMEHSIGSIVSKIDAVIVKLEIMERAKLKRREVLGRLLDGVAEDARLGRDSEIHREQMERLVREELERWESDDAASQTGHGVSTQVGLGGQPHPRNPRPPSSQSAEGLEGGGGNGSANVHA
The test can be described thus: co-IP; endogenous proteins of mouse aortic smooth muscle cells; extraction in 1% Nonidet P-40, 150 mmol/L NaCl, 20 mmol/L Tris-HCl pH 8.0; IP with anti-TRPP2 or anti-STIM1 overnight at 4 °C (no antibody as control), immunoblot.

The chains behind the UniProt entries cited, without tags or fusion partners. Residues count along the entry.
UniProt P70302, residues 23-685: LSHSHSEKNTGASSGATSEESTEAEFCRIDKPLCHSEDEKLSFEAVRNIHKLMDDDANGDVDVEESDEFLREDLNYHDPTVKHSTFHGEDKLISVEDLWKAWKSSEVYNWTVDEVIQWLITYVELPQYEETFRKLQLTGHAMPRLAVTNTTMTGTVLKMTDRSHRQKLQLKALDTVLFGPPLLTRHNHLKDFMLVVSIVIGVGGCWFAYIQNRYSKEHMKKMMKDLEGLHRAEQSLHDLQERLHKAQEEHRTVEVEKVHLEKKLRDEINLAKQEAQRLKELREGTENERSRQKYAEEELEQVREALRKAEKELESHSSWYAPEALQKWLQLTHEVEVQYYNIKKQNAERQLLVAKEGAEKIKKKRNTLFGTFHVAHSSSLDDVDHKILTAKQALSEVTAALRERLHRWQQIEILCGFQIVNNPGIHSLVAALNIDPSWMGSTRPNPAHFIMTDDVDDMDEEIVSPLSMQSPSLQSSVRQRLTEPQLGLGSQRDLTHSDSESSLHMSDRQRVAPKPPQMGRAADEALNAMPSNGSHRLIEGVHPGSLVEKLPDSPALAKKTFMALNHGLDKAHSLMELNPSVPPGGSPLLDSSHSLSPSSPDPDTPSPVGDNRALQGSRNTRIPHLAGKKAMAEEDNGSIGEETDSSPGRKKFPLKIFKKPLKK
UniProt Q13586, residues 23-685: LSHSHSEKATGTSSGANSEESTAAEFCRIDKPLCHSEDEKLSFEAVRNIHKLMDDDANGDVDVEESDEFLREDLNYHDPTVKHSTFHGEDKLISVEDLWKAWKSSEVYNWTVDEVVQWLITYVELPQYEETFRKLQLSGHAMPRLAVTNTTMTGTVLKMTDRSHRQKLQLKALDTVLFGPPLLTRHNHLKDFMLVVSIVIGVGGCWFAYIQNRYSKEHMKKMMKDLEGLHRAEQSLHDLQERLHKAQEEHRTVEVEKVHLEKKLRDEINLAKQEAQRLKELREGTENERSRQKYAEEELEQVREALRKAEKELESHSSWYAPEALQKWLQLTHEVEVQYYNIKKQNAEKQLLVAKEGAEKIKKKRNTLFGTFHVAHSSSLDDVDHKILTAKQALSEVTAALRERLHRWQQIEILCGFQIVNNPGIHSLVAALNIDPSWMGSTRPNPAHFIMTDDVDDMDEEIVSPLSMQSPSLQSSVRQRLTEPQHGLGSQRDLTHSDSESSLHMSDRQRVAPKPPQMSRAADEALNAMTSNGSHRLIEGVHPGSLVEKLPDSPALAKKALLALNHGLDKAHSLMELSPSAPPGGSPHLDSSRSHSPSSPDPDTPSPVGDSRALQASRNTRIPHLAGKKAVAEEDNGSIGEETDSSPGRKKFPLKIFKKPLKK

Test [2] addresses T1, endogenous TRPP2 of mouse vascular smooth muscle cells (mouse (endogenous in aortic VSMCs)). Nature of the test: proximity ligation; in situ Duolink PLA on fixed, permeabilized freshly isolated mouse VSMCs with anti-TRPP2 and anti-STIM1; anti-STIM1 alone as negative control; < 40 nm.
In test [3] the target is T2, GFP-tagged TRPP2 without N2 (112-221aa, ∆N2) (human) (UniProt Q13563).
T2 sequence: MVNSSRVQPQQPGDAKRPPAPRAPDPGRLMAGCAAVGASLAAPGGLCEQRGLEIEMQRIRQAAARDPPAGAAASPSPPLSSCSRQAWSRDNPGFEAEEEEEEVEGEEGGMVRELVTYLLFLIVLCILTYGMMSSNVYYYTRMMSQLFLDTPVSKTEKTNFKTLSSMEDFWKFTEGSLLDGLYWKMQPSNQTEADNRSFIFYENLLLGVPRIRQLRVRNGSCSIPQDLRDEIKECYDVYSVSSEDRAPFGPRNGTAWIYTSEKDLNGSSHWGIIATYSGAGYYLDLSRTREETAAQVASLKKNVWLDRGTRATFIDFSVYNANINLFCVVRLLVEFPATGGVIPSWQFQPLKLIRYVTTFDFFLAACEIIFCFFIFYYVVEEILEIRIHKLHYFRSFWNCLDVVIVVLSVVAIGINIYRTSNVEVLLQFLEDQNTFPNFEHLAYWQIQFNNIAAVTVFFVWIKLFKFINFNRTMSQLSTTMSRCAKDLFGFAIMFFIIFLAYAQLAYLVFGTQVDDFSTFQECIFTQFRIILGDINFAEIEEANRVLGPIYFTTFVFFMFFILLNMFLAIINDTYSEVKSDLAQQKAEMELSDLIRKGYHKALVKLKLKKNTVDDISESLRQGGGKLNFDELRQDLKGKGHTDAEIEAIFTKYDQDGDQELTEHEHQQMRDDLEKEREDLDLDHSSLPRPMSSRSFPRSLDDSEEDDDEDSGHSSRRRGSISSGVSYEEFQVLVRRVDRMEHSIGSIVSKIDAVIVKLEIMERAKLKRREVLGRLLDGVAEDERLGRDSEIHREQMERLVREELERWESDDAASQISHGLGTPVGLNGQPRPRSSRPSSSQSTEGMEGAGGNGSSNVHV
The test can be described thus: co-IP; HEK293 cells co-transfected with tagged TRPP2 constructs and STIM1; extraction in 1% Nonidet P-40, 150 mmol/L NaCl, 20 mmol/L Tris-HCl pH 8.0; IP with GFP or mCherry antibody overnight at 4 °C, protein A, immunoblot. For orientation: Immunoblotting shows a protein as a band on a membrane.

Test [4] addresses T3, GFP-tagged TRPP2 without N1 (2-111aa, ∆N1) (human) (UniProt Q13563).
T3 sequence: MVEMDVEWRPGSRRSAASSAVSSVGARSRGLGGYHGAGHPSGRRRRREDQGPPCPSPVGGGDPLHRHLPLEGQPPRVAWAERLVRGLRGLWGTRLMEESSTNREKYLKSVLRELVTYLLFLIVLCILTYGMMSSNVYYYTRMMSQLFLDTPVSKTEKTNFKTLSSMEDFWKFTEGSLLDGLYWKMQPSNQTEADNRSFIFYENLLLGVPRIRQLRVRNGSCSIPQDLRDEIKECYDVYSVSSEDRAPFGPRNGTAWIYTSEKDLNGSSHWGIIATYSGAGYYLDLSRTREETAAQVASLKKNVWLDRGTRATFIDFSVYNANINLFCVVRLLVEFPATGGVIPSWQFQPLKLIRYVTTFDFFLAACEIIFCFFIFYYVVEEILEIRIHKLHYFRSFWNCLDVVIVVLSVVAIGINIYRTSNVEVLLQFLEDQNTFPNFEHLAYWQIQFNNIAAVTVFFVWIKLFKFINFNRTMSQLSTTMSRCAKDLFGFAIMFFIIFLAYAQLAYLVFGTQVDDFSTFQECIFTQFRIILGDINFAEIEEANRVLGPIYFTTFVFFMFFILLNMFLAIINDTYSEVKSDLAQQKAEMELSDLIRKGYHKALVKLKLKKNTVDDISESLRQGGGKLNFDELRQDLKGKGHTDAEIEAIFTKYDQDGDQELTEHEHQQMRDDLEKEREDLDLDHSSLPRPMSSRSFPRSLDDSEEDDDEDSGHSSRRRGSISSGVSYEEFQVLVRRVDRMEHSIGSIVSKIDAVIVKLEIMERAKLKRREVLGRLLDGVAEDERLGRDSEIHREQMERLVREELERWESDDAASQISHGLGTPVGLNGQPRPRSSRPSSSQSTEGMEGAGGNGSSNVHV
Described as above.

The target of test [5] is T4, GFP-tagged full-length TRPP2 (WT) (human) (UniProt Q13563).
T4 sequence: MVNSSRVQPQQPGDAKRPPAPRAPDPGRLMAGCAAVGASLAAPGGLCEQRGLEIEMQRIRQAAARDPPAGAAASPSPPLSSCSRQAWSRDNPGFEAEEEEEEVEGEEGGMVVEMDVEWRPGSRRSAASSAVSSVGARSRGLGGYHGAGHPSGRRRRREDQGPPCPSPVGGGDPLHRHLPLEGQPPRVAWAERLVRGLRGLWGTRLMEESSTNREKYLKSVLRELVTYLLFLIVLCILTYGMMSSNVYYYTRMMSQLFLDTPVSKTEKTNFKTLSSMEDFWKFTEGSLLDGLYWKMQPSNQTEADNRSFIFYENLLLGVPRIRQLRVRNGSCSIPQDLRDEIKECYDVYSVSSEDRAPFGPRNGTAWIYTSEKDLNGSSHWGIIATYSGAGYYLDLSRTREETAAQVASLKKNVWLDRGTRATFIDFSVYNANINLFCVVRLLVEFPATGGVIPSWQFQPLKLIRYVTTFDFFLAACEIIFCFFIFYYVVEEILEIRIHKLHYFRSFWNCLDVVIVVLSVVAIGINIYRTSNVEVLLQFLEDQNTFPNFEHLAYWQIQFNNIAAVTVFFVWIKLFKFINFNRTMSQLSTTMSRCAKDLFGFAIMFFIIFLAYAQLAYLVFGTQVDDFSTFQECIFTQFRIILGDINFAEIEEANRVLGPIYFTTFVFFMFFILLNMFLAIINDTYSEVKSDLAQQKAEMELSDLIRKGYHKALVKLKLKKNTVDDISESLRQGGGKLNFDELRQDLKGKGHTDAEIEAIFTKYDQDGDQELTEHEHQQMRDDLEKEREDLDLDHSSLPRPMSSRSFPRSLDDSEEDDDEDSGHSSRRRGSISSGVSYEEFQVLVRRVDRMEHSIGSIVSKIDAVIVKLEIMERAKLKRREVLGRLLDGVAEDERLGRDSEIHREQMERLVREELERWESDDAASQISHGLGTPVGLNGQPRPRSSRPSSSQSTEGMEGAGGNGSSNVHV
Described as above.

Test [6] deals with endogenous STIM1 of mouse vascular smooth muscle cells (mouse (endogenous in aortic VSMCs)) (UniProt P70302). The test can be described thus: co-IP; endogenous proteins of mouse aortic smooth muscle cells; extraction in 1% Nonidet P-40, 150 mmol/L NaCl, 20 mmol/L Tris-HCl pH 8.0; IP with anti-TRPP2 or anti-STIM1 overnight at 4 °C (no antibody as control), immunoblot.

Results are given in words; binding and its absence hold for the method and conditions named. In cells and extracts the contact can be indirect. Some results given as binding are weak or reduced against the parent protein; the word gives no strength. For part of these data: Sequences can lack the tags named with a protein.

In the case of “endogenous STIM1 of mouse vascular smooth muscle cells (from UniProt P70302 23-685)”, the binding result in test [1] and in test [2] was “binds” in each case.
For “STIM1 co-expressed with the GFP-tagged TRPP2 constructs (from UniProt Q13586 23-685)”, the binding result in test [3] was “binds”; in test [4] it was “binds weakly”; in test [5], “binds”.

B1: endogenous TRPP2 of mouse vascular smooth muscle cells (protein, UniProt O35245 1-966)
chain: T1 sequence
As for B1, in test [6], the binding entry is listed as “binds”.

For the origin of these results see paper PMC7457527.
